The assay can be described thus: IkB Signaling. Particulars: ABC-DLBCL IkBa-CBG/CBR dual luciferase ratio (green luciferase fused to IkBa over red control in OCI-Ly3 lymphoma cells), 4 h. The method in brief:
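Luminescence ratio of IκBα-fused green versus native red beetle luciferase in OCI-Ly3 cells, 4 h post-doxycycline with compound; red signal alone, scaled from basal (0%) to zero light (-100%), flagged nonspecific or cytotoxic effects.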

Where [1] appears, read: measured here: control luc red channel unless noted.

Structures are written as SMILES. Several values for one entry are separate records, joined by “and”; a condition that tells them apart may be missing. Equal entries are not always repeated. Some of the results follow. These are further read-outs of the screen, such as a control signal, another cell line or another target. No call is given for them. Compounds called inactive in the main read-out are mostly missing here. Potencies come from curve fits of mixed quality, noted in brackets.

What is called AC50 is the concentration giving half of the maximal activity seen. For `CC1(c2ccccc2)CC(C)(C)N(C(=O)c2ccccc2Cl)c2ccccc21` (stereo not drawn), the AC50 under setting [1] is 10 µM [falling, partial curve].

For the molecule `COc1ccccc1C(=O)Nc1c(C(=O)Nc2ccc(C)cc2)oc2ccccc12`, the half-maximal activity concentration (AC50) under setting [1] is 25.1 µM [falling, single point].

As for `CCOC(=O)c1cccc(NC(=O)CCc2nc(-c3ccc(C)cc3)no2)c1`, the AC50 under setting [1] is 2.51 µM [falling, full curve, poor fit].

For the molecule `Cc1cccc(-c2nnc(SCCC(=O)O)o2)c1`, the AC50 under setting [1] is 1.26 µM [falling, full curve].

With `Cc1ccc2nc(N3CCC(C(=O)O)CC3)nc(-c3ccccc3)c2c1`, the AC50 under setting [1] is 10 µM [falling, partial curve].

For the molecule `O=C(O)c1cccnc1Nc1cccc(C(F)(F)F)c1`, the AC50 is 5.01 µM [rising, partial curve, poor fit] (measured here: IkB-luc green channel); 10 µM [falling, full curve] and 7.94 µM [falling, partial curve] (measured here: control luc red channel).

For the molecule `COc1ccccc1CNC(=O)C(C)n1c(=O)cc(C(F)(F)F)c2c(C)nn(C)c21` (stereo not drawn), under setting [1], the AC50 is 10 µM [falling, partial curve].

In the case of `CCOc1cccc(NC(=O)C2CCCN(S(=O)(=O)c3ccc(OC)cc3)C2)c1` (stereo not drawn), the AC50 under setting [1] was 31.6 µM [falling, single point].

On to `Cc1ccc(C)c(CSc2nc3ccncc3n2Cc2nc(-c3ccccc3Cl)oc2C)c1`, for which the AC50 under setting [1] was 6.31 µM [falling, partial curve].

Turning to `Cc1ccc(S(=O)Cc2nc(-c3ccc(C(=O)NC(C)c4ccccc4)cc3)oc2C)cc1` (stereo not drawn), the AC50 under setting [1] is 12.6 µM [falling, partial curve].

`COC(=O)c1ccc(C(=O)OC)c(NC(=O)c2c(-c3ccccc3)c(-c3ccccc3)nn(C)c2=O)c1`: the AC50 under setting [1] is 39.8 µM [falling, single point].

With `Cc1ccc2c(c1)nc(SCC(O)c1ccc(Br)cc1)n2C` (stereo not drawn), the AC50 under setting [1] was 25.1 µM [falling, partial curve].

In the case of `CC(=O)Nc1cccc(-c2nc3ccccc3c(=O)o2)c1`, under setting [1], the AC50 is 15.8 µM [falling, partial curve].

`COc1ccc(-n2c(=O)c3sc4ccccc4c3n(Cc3ccccc3)c2=O)cc1`: the concentration at half-maximal activity (AC50) under setting [1] was 3.98 µM [rising, single point].

With `Cc1ccc2c(CNC3CCC(C)CC3)c(C(=O)O)n(Cc3cccc(F)c3)c2c1` (stereo not drawn), under setting [1], the concentration at half-maximal activity (AC50) was 25.1 µM [falling, partial curve].

On to `CC(=O)c1cccc(NC(=O)Cn2c(C)c3cnn(-c4ccccc4)c(=O)c3c2C)c1`, for which, under setting [1], the AC50 is 20 µM [falling, single point].

As for `CC1CCN(c2nc3ccc(C(=O)NCc4ccc(Cl)cc4)cc3s2)CC1`, the AC50 under setting [1] was 2.51 µM [falling, partial curve].
